## Screening data, single-dose tests

Protein sequences, listed by entry. Tags and fused reporters are not part of them. Residues count along the entry.
UniProt Q4DA54, 1-478: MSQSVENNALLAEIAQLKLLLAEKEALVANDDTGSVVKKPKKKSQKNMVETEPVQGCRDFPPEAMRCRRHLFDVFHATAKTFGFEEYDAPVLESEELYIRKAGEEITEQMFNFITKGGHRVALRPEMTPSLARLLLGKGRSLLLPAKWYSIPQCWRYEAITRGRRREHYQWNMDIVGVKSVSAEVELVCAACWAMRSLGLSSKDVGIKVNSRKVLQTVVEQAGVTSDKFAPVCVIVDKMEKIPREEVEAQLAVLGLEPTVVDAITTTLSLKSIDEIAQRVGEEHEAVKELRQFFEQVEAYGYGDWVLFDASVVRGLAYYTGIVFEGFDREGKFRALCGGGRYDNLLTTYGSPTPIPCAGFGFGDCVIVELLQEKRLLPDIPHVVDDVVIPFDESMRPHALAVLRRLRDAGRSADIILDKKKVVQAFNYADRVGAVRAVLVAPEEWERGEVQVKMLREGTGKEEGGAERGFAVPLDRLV
UniProt A4I591, 1-473: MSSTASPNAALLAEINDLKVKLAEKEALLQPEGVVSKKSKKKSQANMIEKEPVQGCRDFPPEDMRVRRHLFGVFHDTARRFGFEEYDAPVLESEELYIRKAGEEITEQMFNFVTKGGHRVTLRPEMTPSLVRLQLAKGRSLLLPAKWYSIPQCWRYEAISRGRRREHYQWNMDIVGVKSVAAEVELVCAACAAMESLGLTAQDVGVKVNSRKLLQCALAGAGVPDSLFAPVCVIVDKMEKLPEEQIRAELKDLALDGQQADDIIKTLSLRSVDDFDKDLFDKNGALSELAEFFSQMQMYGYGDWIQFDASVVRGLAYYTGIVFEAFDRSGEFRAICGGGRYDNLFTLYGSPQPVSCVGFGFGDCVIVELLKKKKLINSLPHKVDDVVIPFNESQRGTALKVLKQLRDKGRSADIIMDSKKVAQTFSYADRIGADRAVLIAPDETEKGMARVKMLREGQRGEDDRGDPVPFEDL

A: 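Assay of Toxoplasma gondii numbers, read through their beta-galactosidase reporter with a colour substrate. Tested at 10 µM. Higher reads as fewer parasites (inferred from which compounds were picked for retests). Size under these conditions: about 67,000 compounds, about 260 of them at 50% or above in at least one test.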
B: 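Enzyme assay of histidyl-tRNA synthetase; the read-out is not stated. Target: Histidine-tRNA ligase, Trypanosoma cruzi CL Brener (UniProt Q4DA54). Tested at 30 µM. The record gives no direction; compounds that gave an IC50 in retests scored well above the rest, so higher reads as stronger inhibition. Size under these conditions: about 69,000 compounds, about 31 of them at 50% or above in at least one test.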
C: 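Enzyme assay of histidyl-tRNA synthetase; the read-out is not stated. Target: Histidine-tRNA ligase, Leishmania infantum (UniProt A4I591). Tested at 30 µM. Direction is inferred from retests: higher values go with stronger inhibition. The assay is labelled LdHisRS but filed under L. infantum. Of about 69,000 compounds tested this way, about 410 (0.6%) reached 50% or more in at least one test.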
D: 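Whole-parasite assay of Trypanosoma brucei over 72 hours; the read-out is not stated. Tested at 30 µM. Higher reads as stronger inhibition (inferred: compounds with an IC50 in retests scored well above the rest). Values scatter widely below zero; nearly all retest evidence comes from the higher of the two concentrations used. About 64,000 compounds were tested under these conditions; 1.5% (about 940) showed 50% or more at least once.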

Values are the deposited “Percent Effect”, in %. The record does not define 0% and 100%; most values in the screen are far below 50% and negative numbers occur (in some assays of this library far below -100). Compounds were drawn at random from those tested, without regard to their results. A dash means the value is not listed here; it may have been measured.

| # | Compound | A | B | C | D |
|---|---|---|---|---|---|
| 1 | `COCCN(Cc1ccoc1)S(=O)(=O)c1ccc(F)c(Cl)c1` | -24.72 | 7.212 | 24.39 | -34.15 |
| 2 | `COc1cccc(OCCNS(=O)(=O)Cc2ccccc2)c1` | 12.53 | 6.931 | 9.524 | -40.43 |
| 3 | `Cc1nc(C2CCCN2C(=O)COCc2ccccc2)no1` (stereo unspecified) | 20.18 | -2.579 | 5.263 | 4.903 |
| 4 | `CCN1C[C@H]2CCN(C(=O)C3CCCO3)CC[C@H]2S1(=O)=O` (stereo partly specified) | - | 0 | 13.79 | - |
| 5 | `CN1CCOCC12CCN(C(=O)C1CCC1)CC2` | - | 3.365 | 24.77 | - |
| 6 | `Cc1nn(C)cc1-c1cc(C(F)(F)F)c2c(C)nn(CC(=O)O)c2n1` | 2.384 | 12.9 | 2.857 | -31.9 |
| 7 | `CN(C)C1(CNc2nccc(C3CCCC3)n2)CCOCC1` | 7.366 | 0 | 4.286 | -8.085 |
| 8 | `O=C(CCc1ccc(C(F)(F)F)cc1)N1CCCS1(=O)=O` | 4.662 | 6.897 | 9.821 | -32.49 |
| 9 | `COC(=O)CC(c1cccs1)c1oc(C)cc(=O)c1O` (stereo unspecified) | -3.65 | 3.614 | 5.128 | -25.62 |
| 10 | `CC(=O)NC1CCCc2c1[nH]c1ccc(F)cc21` (stereo unspecified) | - | 6.931 | 19.57 | -27.6 |
| 11 | `O=C(Cc1ccccc1)N1CCOC(c2nc(-c3ncccn3)no2)C1` (stereo unspecified) | -15.18 | 3.191 | 7.292 | -20.2 |
| 12 | `CC(C)NC(=O)CC1COC2(CCN(Cc3cccnc3)CC2)C1` (stereo unspecified) | - | 1.442 | -10.09 | - |
| 13 | `CC(=O)Nc1ccc2nc(-c3nccn3C[C@@H]3CCCO3)ccc2c1` | 18.42 | 9.827 | 51.06 | 1.946 |
| 14 | `[H][C@]12CC[C@]([H])(CN(Cc3nnc(-c4ccccc4)o3)C1)N(CC1CCC1)C2` | -7.877 | - | - | -46.57 |
| 15 | `COCC(=O)N1CCC2(CC1)CNc1ccc(F)cc12.O=C(O)C(F)(F)F` | -11 | - | - | - |
| 16 | `CS(=O)(=O)C1CCN(S(=O)(=O)c2ccc(F)c(F)c2)CC1` | 9.182 | 4.523 | 8.989 | -5.903 |
| 17 | `COCCCNC(=O)c1c(C)noc1C(C)C` | -1.361 | 3.429 | 9.615 | - |
| 18 | `OCC1COCCN(c2ncccc2C(F)(F)F)C1` (stereo unspecified) | 12.28 | 5.464 | 19.18 | -18.5 |
| 19 | `COc1cccc(NC(=O)C(C)Cn2cc(Cl)cn2)c1` (stereo unspecified) | 13.16 | 7.772 | 2.151 | 2.885 |
| 20 | `Cn1ncc2c(=O)[nH]c(CN3CCCC3CC3CCCCC3)nc21` (stereo unspecified) | 4.834 | -0.7576 | 34.85 | 23.02 |
| 21 | `N#Cc1cccc(CN2CCC3(CC2)CC(c2ccncc2)C(=O)N3)c1.O=C(O)C(F)(F)F.O=C(O)C(F)(F)F` (stereo unspecified) | 5.291 | - | - | 43.46 |
| 22 | `COc1ccc(C(=O)N2CCN(C(=O)Cn3nccc3C)CC2)cc1` | -5.109 | 5.319 | 21.88 | -19.19 |
| 23 | `CCc1cnc(CN(C)C(=O)NC2CCN(CC3CC3)C2)s1` (stereo unspecified) | 2.704 | 2.597 | 1.667 | -115.4 |
| 24 | `Cc1cc(C)n(C2CN(CCC(=O)NC3CCCCC3)C2)n1` | -0.9036 | 2.254 | 6.087 | -0.008871 |
| 25 | `OC(COCc1cccs1)Cn1cc(-n2cccc2)cn1` (stereo unspecified) | 1.645 | 1.554 | 15.05 | -2.488 |
| 26 | `COc1c(C)cnc(CN2CCCCC2CCN2CCOCC2)c1C` (stereo unspecified) | 14.08 | 4.706 | 24.6 | -23.01 |
| 27 | `Cc1ccc2nc(C(=O)N3CC(c4cccnc4)C3)cn2c1` | 2.166 | 8 | 20.41 | -23.08 |
| 28 | `COCCN(Cc1ccccn1)C(=O)C1CCCCCN1C` (stereo unspecified) | 1.049 | 0.9804 | 17.6 | -4.776 |
| 29 | `CC(C)NC(=O)CCNC(=O)c1cc(Br)cn1C(C)C` | -0.7585 | 5.911 | 6.849 | -24.8 |
| 30 | `O=C(O)C(F)(F)F.O=C(O)C(F)(F)F.O=C(O)C(F)(F)F.[H][C@]12C[C@@H](CN(C)C)N(C)[C@@]1([H])CCN(c1ncc(F)cn1)C2` | -7.687 | - | - | - |
| 31 | `O=C(NC1CCC1)c1cccc(S(=O)(=O)NCc2nc(C3CC3)no2)c1` | -11.52 | -1.657 | 12.05 | -14.11 |
| 32 | `CN(Cc1cn2c(n1)CN(C(=O)C1CCOCC1)CC2)Cc1ccco1` | 0.6772 | 6.452 | 15.04 | -51.64 |
| 33 | `CC(C)Oc1ccc2c(NC(=O)CN(C)C)nn(CC(F)(F)F)c2c1` | 2.314 | 3.636 | 15.58 | 6.154 |
| 34 | `O=C(CCN1CCCC1c1cccc2c1OCCO2)N1CCOCC1` (stereo unspecified) | 2.558 | 8.333 | 15.18 | 16.71 |
| 35 | `[H][C@@]12COC[C@]1(CNS(C)(=O)=O)CN(C(=O)c1ccccc1)C2` | -3.548 | - | - | 30.28 |
| 36 | `CCN1CCN(S(=O)(=O)c2cc(C)c(Cl)cc2C)CC1` | -50.78 | 0.8772 | 1.77 | - |
| 37 | `Cn1cc(-c2ncnc3c2CCN(CC2CCOC2)CC3)cn1.O=C(O)C(F)(F)F` (stereo unspecified) | -19.49 | - | - | -8.209 |
| 38 | `[H][C@@]12CCC(=O)N(CCOC)[C@@]1([H])CCN2S(=O)(=O)C1CC1` | 0.9031 | - | - | -89.2 |
| 39 | `O=C(Nc1ccccc1)C1CN(Cc2cccs2)CC12CCOCC2` (stereo unspecified) | 2.833 | -0.9901 | 20.55 | -37.27 |
| 40 | `Cc1cc(=O)n(CCNS(=O)(=O)c2cccc(C(F)(F)F)c2)cn1` | -14.19 | 8 | 21.74 | -14.9 |
| 41 | `Cc1nc(C2CCCN2Cc2ncc(C(C)C)o2)no1` (stereo unspecified) | -12.39 | 5.66 | 1.351 | -1.58 |
| 42 | `Cc1cc(C)nc(C2CCN(C(=O)c3c(C)noc3C)C2)n1` (stereo unspecified) | -0.5685 | 2.239 | 7.368 | 6.954 |
| 43 | `Cn1cccc1C(=O)N1CCC2(CCCN2Cc2ccccc2)CC1` | - | 5.785 | 16.36 | - |
| 44 | `COCCNc1nc2c(c(NCCc3cccs3)n1)CCNCC2` | 5.74 | 28.41 | 35 | -24.48 |
| 45 | `CN(C)C(=O)CN1CCN(C(=O)C2CSc3ccccc3O2)CC1` (stereo unspecified) | 2.709 | 3.922 | 15 | -15.99 |
| 46 | `CSCc1ccc(CNC2CCCN(c3ccc(C)nn3)C2)o1` (stereo unspecified) | 38.23 | 16.81 | 34.19 | - |

For reference, 4 entries once more:

* Cc1nc(C2CCCN2C(=O)COCc2ccccc2)no1 (stereo unspecified) | A: 20.18%; B: -2.579%; C: 5.263%; D: 4.903%
* CN(C)C(=O)CN1CCN(C(=O)C2CSc3ccccc3O2)CC1 (stereo unspecified) | A: 2.709%; B: 3.922%; C: 15%; D: -15.99%
* Cc1nn(C)cc1-c1cc(C(F)(F)F)c2c(C)nn(CC(=O)O)c2n1 | A: 2.384%; B: 12.9%; C: 2.857%; D: -31.9%
* COCCNc1nc2c(c(NCCc3cccs3)n1)CCNCC2 | A: 5.74%; B: 28.41%; C: 35%; D: -24.48%

Source: ChEMBL document CHEMBL3988442, “University of Dundee, Small-Polar-MMV Screening Library” (2021).